# Some of the results follow.
# Target: T1, OsSMF1 (Oryza sativa, UniProt Q6ZLB0 1-436)
# T1 sequence: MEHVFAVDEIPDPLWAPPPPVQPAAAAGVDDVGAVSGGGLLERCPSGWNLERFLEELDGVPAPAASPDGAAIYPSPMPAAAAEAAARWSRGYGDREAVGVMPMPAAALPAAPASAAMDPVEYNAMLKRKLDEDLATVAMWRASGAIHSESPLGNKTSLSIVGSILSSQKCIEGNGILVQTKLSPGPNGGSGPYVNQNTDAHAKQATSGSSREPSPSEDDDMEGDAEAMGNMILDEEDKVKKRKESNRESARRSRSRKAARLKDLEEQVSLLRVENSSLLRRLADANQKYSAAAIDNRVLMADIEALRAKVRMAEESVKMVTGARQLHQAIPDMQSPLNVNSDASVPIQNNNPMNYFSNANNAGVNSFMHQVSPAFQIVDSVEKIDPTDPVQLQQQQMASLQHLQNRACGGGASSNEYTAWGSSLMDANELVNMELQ
# Assay: protein-binding microarray (RPBM); PBS, 2% BSA, 51.3 ng/ul salmon testes DNA, 50 uM zinc acetate, 200 nM TF, 25 C, 1 h; high values mean tight binding
# Conditions: protein: recombinant; tags: N-terminal polyhistidine and DsRed monomer fusion (pET32a); chain copies: 2; label: CyDye5-dUTP incorporated in the synthesized complementary strand; 3' TTTTT single-stranded linker to array surface; dsDNA, one strand shown
# Procedure, shortened: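 Binding signal is defined as the fluorescence intensity of each feature in arbitrary units, read on an Axon 4000B scanner. Transcription factors with N-terminal polyhistidine and DsRed fusions came from E. coli BL21-CodonPlus and were purified on Ni–NTA. They were incubated at 200 nM for 1 h at 25 °C on a custom Agilent array that had been made double-stranded with Cy5-dUTP, with 50 µM zinc acetate present, and the array was washed.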
row,Sequence,binding signal
1,GGCAGTATGCTGTATGCAATAGTCACGGGTACATAGGGTGCGGAGTCACCTAGTGCAG,3270 fluorescence intensity (a.u.)
2,GATTTGTCAAAGATTCTCTCTTCACGATAACATGGTTTAGCGGAGTCACCTAGTGCAG,20600 fluorescence intensity (a.u.)
3,CGCGCGTGGTGGTTGGGTGTGCGGGGTGTGCAAACCCTAGCGGAGTCACCTAGTGCAG,3980 fluorescence intensity (a.u.)
4,CTGCACTGTTGTCACCTACTACCCCAAGGGTGAGTTCAGCCGGAGTCACCTAGTGCAG,22800 fluorescence intensity (a.u.)
5,GTCCACCACCCACCTCGTACGTGTTCTGTCCACACACGCGCGGAGTCACCTAGTGCAG,4300 fluorescence intensity (a.u.)
6,GGGTATAGATGTAACTTTTGTCTTGAGTTAACACCATCACCGGAGTCACCTAGTGCAG,14500 fluorescence intensity (a.u.)
7,AAGTAGTACTATATATATATATGTGTACAAACATTACTTCCGGAGTCACCTAGTGCAG,3170 fluorescence intensity (a.u.)
8,GGCTTTACTTGTCATGTGCTCTTGTTAATATTCTCTGTTGCGGAGTCACCTAGTGCAG,3680 fluorescence intensity (a.u.)
9,GTTTGGTTTATTTCCCGAACAAGGGAAACAACGGGGCGGGCGGAGTCACCTAGTGCAG,3250 fluorescence intensity (a.u.)
10,GTAACTTGTCTATCTGTTTTGCTTTCTCAGCTAAATATCCCGGAGTCACCTAGTGCAG,3300 fluorescence intensity (a.u.)
11,CGGTAGATTTTGAACTGACGAAGTCCAGAAAGCAAGCAAGCGGAGTCACCTAGTGCAG,3970 fluorescence intensity (a.u.)
12,ATTAGGTGGACTCCTCGTCGGCGGCACGTAGTCTTCGTCCCGGAGTCACCTAGTGCAG,4680 fluorescence intensity (a.u.)
13,TGCTGCCGCGATTTGAGCGAGTGAATGTGACACTGGCTGACGGAGTCACCTAGTGCAG,4410 fluorescence intensity (a.u.)
14,GTATTGGAGCTCTACAGTTCGGTCTACTCCTCTCTGTTGCCGGAGTCACCTAGTGCAG,27500 fluorescence intensity (a.u.)
15,AGGCATATGGCGGTGGCATACACAACACAAATGTTCCTGGCGGAGTCACCTAGTGCAG,4000 fluorescence intensity (a.u.)
16,ATCATCTATTAGTACCATCTATTAATTACGTGTACAAATTCGGAGTCACCTAGTGCAG,8340 fluorescence intensity (a.u.)
17,CCCTTCTCCACAACGCCAGCAGTCGCGGCCGTCTGCGCTTCGGAGTCACCTAGTGCAG,3640 fluorescence intensity (a.u.)
18,TGTGTGCTGACAGTTCATTTTCCTTGTGTTGTGCTGTTGTCGGAGTCACCTAGTGCAG,4970 fluorescence intensity (a.u.)
19,CTTTCCACTAGCGGCCCTCTAGAAATATTACATGGCAAGTCGGAGTCACCTAGTGCAG,4150 fluorescence intensity (a.u.)
20,ATCCCTTGCCTTGGCCGGTGGCCGCTACCGCTACGCAGCTCGGAGTCACCTAGTGCAG,3940 fluorescence intensity (a.u.)
21,ATCAGCAAGCTTAGAAGAAGTAAGGCGTCACACGCAAGCACGGAGTCACCTAGTGCAG,6430 fluorescence intensity (a.u.)

row,Sequence,binding signal
1,ACGAATCGGAAATGGTCAGTAGACTATAAATATACGTGTCCGGAGTCACCTAGTGCAG,3270 fluorescence intensity (a.u.)
2,AGCGCCAATGGGACTGGCGCTGACATTGTGCCACCGTGGCCGGAGTCACCTAGTGCAG,6590 fluorescence intensity (a.u.)
3,CGTCAGTTGCGATTCGTTTGGACGCCGTCAGCAATGATTGCGGAGTCACCTAGTGCAG,3260 fluorescence intensity (a.u.)
4,TCGTATTAGCCCTGACCTGTCATCCGCGACAGGCTGCCTGCGGAGTCACCTAGTGCAG,4960 fluorescence intensity (a.u.)
5,GTCATTAAACGGAAACTAATCCGTTACATGACGTGGGCCCCGGAGTCACCTAGTGCAG,14000 fluorescence intensity (a.u.)
6,GGCCACCGTGCGTCTGCCGCGTCGGCACCCGTGCAGGGTTCGGAGTCACCTAGTGCAG,8060 fluorescence intensity (a.u.)
7,CACCTCCTCCCTCGCCGCCGCCGCCGCCGCTGACTCCCACCGGAGTCACCTAGTGCAG,4820 fluorescence intensity (a.u.)
8,AATCCACTATTCACAGGATGAGAATCCAGAGCTGAAGCTTCGGAGTCACCTAGTGCAG,14400 fluorescence intensity (a.u.)
9,ACAACTGAAAAGGATGAGGCGCTTACAACCAAAATGCAAGCGGAGTCACCTAGTGCAG,7450 fluorescence intensity (a.u.)
10,CCCTCTTTCCCATCTGTGTCACCTTCCACCGCTGTTCAAACGGAGTCACCTAGTGCAG,4990 fluorescence intensity (a.u.)
11,GCCCGGTCAGTGGTGACTCAGCGAGATGGGCCCGTTTTGTCGGAGTCACCTAGTGCAG,6830 fluorescence intensity (a.u.)
12,CTAATATATTGACGTGTAATTCTTTTGTGTGTTTGTGAAACGGAGTCACCTAGTGCAG,6530 fluorescence intensity (a.u.)
13,CACGGCATACGCACCGCACCGCCTTAATTATACTACTAATCGGAGTCACCTAGTGCAG,12500 fluorescence intensity (a.u.)
14,CGCCAGCCACCTCCGGCGCCGTTCGCCAGCCACCACGCGCCGGAGTCACCTAGTGCAG,37900 fluorescence intensity (a.u.)
15,GTCGTGTCTGACGTCGTATACTCGTGTGGTGTATTCATATCGGAGTCACCTAGTGCAG,6180 fluorescence intensity (a.u.)
16,GCGAATAAGATGATGGACGCGTTCGTCAACAAGCCACGGTCGGAGTCACCTAGTGCAG,3380 fluorescence intensity (a.u.)
17,CCCACACAGATCAGGGCCAGCTTACCGTCGGTGCAGGAAACGGAGTCACCTAGTGCAG,3340 fluorescence intensity (a.u.)
18,CGTCCGCTGTGGTGACGCTGACGGCCGCGTGACATGGCTTCGGAGTCACCTAGTGCAG,12500 fluorescence intensity (a.u.)
19,AATACGATTAACGTGCTAAGATGACGTCAGCTGAGGATAGCGGAGTCACCTAGTGCAG,10400 fluorescence intensity (a.u.)
20,TATTATACAAATTACCACATCACATTTATATTCGTACTATCGGAGTCACCTAGTGCAG,25900 fluorescence intensity (a.u.)
21,AATATAGCTAATTATTAGCTCTTAAAATTAACACATCATGCGGAGTCACCTAGTGCAG,3820 fluorescence intensity (a.u.)

# An excerpt of these results, with tabs:
row	Sequence	binding signal
17	CCCACACAGATCAGGGCCAGCTTACCGTCGGTGCAGGAAACGGAGTCACCTAGTGCAG	3340 fluorescence intensity (a.u.)
18	CGTCCGCTGTGGTGACGCTGACGGCCGCGTGACATGGCTTCGGAGTCACCTAGTGCAG	12500 fluorescence intensity (a.u.)

# From publication PMC7819943, “Rice protein-binding microarrays: a tool to detect cis-acting elements near promoter regions in rice”
